Structures can show the parent of a compound that is named as a salt. This is one part of the list. Single values are uncertain here, since repeats match poorly.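 Cells: ReNCell VM human fetal ventral-midbrain neural progenitors, differentiated mitogen-free. Blinded raters compared doublecortin-stained (early neurons) or tyrosine hydroxylase-stained (dopaminergic neurons) images with untreated wells, where 0 means no change. After repeats and both raters were averaged, compounds scoring 2 or above became hits for retesting.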
Experiments:
[1] = tested on: ReNCell VM; experiment: neuronal differentiation score (DCX+ cell fraction vs untreated, manual image score) (score (-3 to 3)); higher = more neuronal differentiation; conditions: 2 uM, 2 weeks
[2] = tested on: ReNCell VM; experiment: dopaminergic neuron differentiation score (TH+ cell fraction vs untreated, manual image score) (score (0 to 3)); higher = more TH+ dopaminergic neuron differentiation; conditions: 2 uM, 4 weeks, BDNF 10 ng/ml + GDNF 10 ng/ml

## CC1=C(/C=C/C(C)=C/C=C/C(C)=C\C(=O)O)C(C)(C)CCC1 [Isotretinoin]
[1]; library: Prestwick
  neuronal differentiation score: inactive: -2
[2]; library: Prestwick
  dopaminergic neuron differentiation score: inactive: 0

## C[C@]12CC[C@H]3C(=CCc4cc(O)ccc43)[C@@H]1CCC2=O [Equilin]
[1]; library: Prestwick
  neuronal differentiation score: inactive: 0
[2]; library: Prestwick
  dopaminergic neuron differentiation score: inactive: 0

## CC(C(=O)O)[C@H]1CCC2C3CC=C4C[C@@H](O)CC[C@]4(C)C3CC[C@@]21C (stereo partly drawn) [3beta-HYDROXY-23,24-BISNORCHOL-5-ENIC ACID]
[1]; library: Spectrum
  neuronal differentiation score: inactive: 0
[2]; library: Spectrum
  dopaminergic neuron differentiation score: inactive: 0

## CN(CC[C@@H](Oc1ccc(-c2ccccc2)cc1)c1ccc(F)cc1)CC(=O)O [ALX 5407 hydrochloride]
[1]; library: Tocriscreen
  neuronal differentiation score: inactive: 0
[2]; library: Tocriscreen
  dopaminergic neuron differentiation score: inactive: 0

## c1cnc(N2CCN(Cc3ccc4c(c3)OCO4)CC2)nc1 [Piribedil]
[1]; library: Tocriscreen
  neuronal differentiation score: inactive: 0
[2]; library: Tocriscreen
  dopaminergic neuron differentiation score: inactive: 0

## O=C(Cn1ccnc1[N+](=O)[O-])NCCO [Etanidazole]
[1]; library: Prestwick
  neuronal differentiation score: inactive: 0
[2]; library: Prestwick
  dopaminergic neuron differentiation score: inactive: 0

## CCCCCCCC/C=C\CCCCCCCC(=O)N[C@@H](CO)Cc1ccc(O)cc1
[1]; library: Tocriscreen
  neuronal differentiation score: inactive: 0
[2]; library: Tocriscreen
  dopaminergic neuron differentiation score: inactive: 0

## CC(=O)O[C@]1(C(C)=O)CC[C@H]2[C@@H]3C=C(Cl)C4=CC(=O)[C@@H]5C[C@@H]5[C@]4(C)[C@H]3CC[C@@]21C
[1]; library: Spectrum
  neuronal differentiation score: inactive: 0
[2]; library: Spectrum
  dopaminergic neuron differentiation score: inactive: 0

## CN(Cc1cnc2nc(N)nc(N)c2n1)c1ccc(C(=O)NC(CCC(=O)O)C(=O)O)cc1 (racemic)
[1]; library: Spectrum
  neuronal differentiation score: inactive: 0
[2]; library: Spectrum
  dopaminergic neuron differentiation score: inactive: 0

## O=S1(=O)c2cccc3cccc(c23)N1CCCN1CCN(c2ccc(F)cc2)CC1 [Fananserin]
[1]; library: Tocriscreen
  neuronal differentiation score: inactive: 0
[2]; library: Tocriscreen
  dopaminergic neuron differentiation score: inactive: 0

## Nc1ncnc(Nc2ccc(Cl)cc2)n1
[1]; library: Spectrum
  neuronal differentiation score: inactive: 0
[2]; library: Spectrum
  dopaminergic neuron differentiation score: inactive: 0

## CC(CN(C)C)CN1c2ccccc2CCc2ccccc21 (stereo not given)
[1]; library: Spectrum
  neuronal differentiation score: inactive: 0
[2]; library: Spectrum
  dopaminergic neuron differentiation score: inactive: 0

## CN1CCC(=C2c3ccccc3CCc3sccc32)CC1
[1]; library: Spectrum
  neuronal differentiation score: inactive: 0
[2]; library: Spectrum
  dopaminergic neuron differentiation score: inactive: 0

## C[C@H]1C[C@H]2[C@@H]3CCC4=CC(=O)C=C[C@]4(C)[C@@]3(F)[C@@H](O)C[C@]2(C)[C@@]1(O)C(=O)CO
[1]; library: Spectrum
  neuronal differentiation score: inactive: 0
[2]; library: Spectrum
  dopaminergic neuron differentiation score: inactive: 0

## Cc1ccccc1OCC(O)CO (stereo not given)
[1]; library: Spectrum
  neuronal differentiation score: inactive: 0
[2]; library: Spectrum
  dopaminergic neuron differentiation score: inactive: 0

## O=c1[nH]c(=O)c2ccccc2o1
[1]; library: Spectrum
  neuronal differentiation score: inactive: 0
[2]; library: Spectrum
  dopaminergic neuron differentiation score: inactive: 0

## COc1ccc2oc(-c3ccccc3OC)cc(=O)c2c1
[1]; library: Spectrum
  neuronal differentiation score: inactive: 0
[2]; library: Spectrum
  dopaminergic neuron differentiation score: inactive: 0

## COc1ccc(C2CC(c3c(O)cc(C)oc3=O)=NCCS2)c(OC)c1 (stereo not given)
[1]; library: Tocriscreen
  neuronal differentiation score: inactive: 0
[2]; library: Tocriscreen
  dopaminergic neuron differentiation score: inactive: 0

## Nc1nc(NC2CC2)c2ncn([C@H]3C=C[C@@H](CO)C3)c2n1
[1]; library: Spectrum
  neuronal differentiation score: inactive: 0
[2]; library: Spectrum
  dopaminergic neuron differentiation score: inactive: 0

## COC1=CC(=O)C(C(=O)c2ccccc2)=CC1=O
[1]; library: Spectrum
  neuronal differentiation score: inactive: 0
[2]; library: Spectrum
  dopaminergic neuron differentiation score: inactive: 0

Source: the supplement of paper PMC4635364
